Source: patent US7531360B2, “Method of dechlorination treatment of flowing water, in particular upstream of a biological pollution detector” (Societe des Eaux de Marseille, priority 2005, dated 2009)

Assay: Effect of excess ascorbic acid on pH, dissolved oxygen and residual chlorine in artificially chlorinated distributed water
Source text: In order to ensure effective dechlorination, it is advantageous to control the system using a chlorine analyzer (a metering pump controlled by a chlorine analyzer). However, to avoid this metering pump control, it is possible to work with a slight excess of ascorbic acid. […] Experiments were thus carried out in this area on artificially chlorinated distributed water to verify these effects.
It should be noted that the pH still remains in a range favorable to the survival of trout fingerlings regardless of the initial pH of the distributed water.

Structure (SMILES): O=C1O[C@H]([C@@H](O)CO)C(O)=C1O [ascorbic acid, L-ascorbic acid]
- Maximum decrease in pH of treated water (ascorbic acid concentration double with respect to stoichiometry): ≤ 10%
- Maximum decrease in dissolved oxygen (excess ascorbic acid, same conditions): ≤ 10%
